# Measurements taken from the supplement of paper PMC3334620.
# Whole data set: some 33,000 sequences, median “E-score (-0.5 to 0.5)” near -0.015, cut for the highest 2% near 0.3. Some of the results follow.
# Target: T1, Abf1 (UniProt P14164)
# T1 sequence: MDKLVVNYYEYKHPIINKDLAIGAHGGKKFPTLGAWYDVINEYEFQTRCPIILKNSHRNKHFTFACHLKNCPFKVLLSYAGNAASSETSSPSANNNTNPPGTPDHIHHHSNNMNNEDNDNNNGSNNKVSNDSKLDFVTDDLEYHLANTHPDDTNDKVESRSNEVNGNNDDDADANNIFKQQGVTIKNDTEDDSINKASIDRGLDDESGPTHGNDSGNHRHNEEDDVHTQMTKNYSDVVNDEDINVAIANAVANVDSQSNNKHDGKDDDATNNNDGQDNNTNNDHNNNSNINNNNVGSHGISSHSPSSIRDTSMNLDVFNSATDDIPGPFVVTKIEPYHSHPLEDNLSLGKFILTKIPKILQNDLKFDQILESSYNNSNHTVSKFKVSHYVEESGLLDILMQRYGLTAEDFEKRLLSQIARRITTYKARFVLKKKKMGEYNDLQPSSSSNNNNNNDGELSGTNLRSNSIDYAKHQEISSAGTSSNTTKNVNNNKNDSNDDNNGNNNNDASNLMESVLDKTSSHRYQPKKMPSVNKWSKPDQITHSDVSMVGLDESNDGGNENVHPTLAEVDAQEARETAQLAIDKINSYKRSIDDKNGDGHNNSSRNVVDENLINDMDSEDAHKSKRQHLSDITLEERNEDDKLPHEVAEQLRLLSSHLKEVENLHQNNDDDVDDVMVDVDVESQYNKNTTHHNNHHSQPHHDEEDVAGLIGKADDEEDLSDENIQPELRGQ
# Assay: PBM E-score (8-mer binding enrichment) (E-score (-0.5 to 0.5)); higher = stronger / more preferred TF binding
# Conditions: protein concentration: 200 nM; construct: GST-full length
# Protocol: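 Universal 'all 10-mer' protein binding microarrays (Agilent AMADID 015681) probed with GST-tagged S. cerevisiae TFs (full-length or DBD) made by in vitro transcription/translation (PURExpress), about 100-200 nM. Bound TF was detected with fluorescent anti-GST. Each ungapped 8-mer (which stands for itself and its reverse complement) is scored by the PBM enrichment score (E-score), a modified Wilcoxon-Mann-Whitney statistic from -0.5 to +0.5, computed with the Universal PBM Analysis Suite. Scale: above 0.35 generally sequence-specific binding.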
row,Sequence,PBM E-score
1,CAAGTAGG,-0.217
2,GACCTCTA,0.0658
3,AAACACGC,0.0874
4,CAACTCCA,-0.163
5,AATTGGAT,0.192
6,AACATCGC,0.0589
7,GCTTTGGA,0.0202
8,CGGGACTC,-0.159
9,ATCCCTGG,-0.0203
10,ATTAAAAT,0.158
11,CTTATTCA,-0.0273
12,TAATAAGA,0.128
13,AATAACTA,0.124
14,CGTCGAGA,0.131
15,CGGAGTAA,0.0152
16,GACGTGGC,-0.121
17,AGAAATAT,0.148
18,AAAACATT,0.0563
19,CCATTAAG,-0.239
20,TCCCACAA,-0.0942
21,CGGTAGTC,-0.138
22,GCAATGAC,0.245
23,AGGATAAT,0.174
24,GAAGTCTA,-0.136
25,ACCAGGCG,-0.17

row,Sequence,PBM E-score
1,ATGCAAGA,-0.00898
2,TGTGCGAA,0.111
3,AGCATCGA,0.0175
4,AACATCTT,-0.103
5,ATTAACGG,0.126
6,GTTGAGAA,0.098
7,AGGGGGTC,-0.381
8,ATGGCCTA,-0.0511
9,GACGTGCC,-0.0215
10,TCCCTGCA,-0.169
11,GACCAATC,0.00831
12,GTACTGCA,-0.101
13,ACTGCTCT,-0.0133
14,GTGTCAGA,0.0238
15,CCCGGGAG,-0.228
16,CCCCAACC,-0.154
17,GGACGTCC,-0.0932
18,AATAGTGC,0.0751
19,CATAAGTC,-0.00466
20,CTACATCC,0.036
21,CAGTACAC,-0.0347
22,GAAATGCC,-0.092
23,AGAAAGAC,-0.0404
24,CAGAACAG,-0.237
25,GATTTCGA,-0.0714

# Some of the entries above, set out differently.
row | Sequence | PBM E-score
4 | AACATCTT | -0.103
7 | AGGGGGTC | -0.381
8 | ATGGCCTA | -0.0511
13 | ACTGCTCT | -0.0133

# The listing continues.

row,Sequence,PBM E-score
1,ACTAAGAG,-0.00955
2,AGTAATAA,0.233
3,AGCGGTGA,0.23
4,AGGCCGTA,0.231
5,CGCATGCA,-0.0509
6,GTATGTCA,0.394
7,GAGCAGCC,-0.0551
8,TCTAAACA,0.0876
9,AGCCGTAA,0.193
10,CCTGCTAA,0.0331
11,GCGCACCA,-0.024
12,ACGCGGCC,-0.107
13,CGGAAGGC,-0.314
14,ATAAGAGC,-0.0255
15,GAAGACCA,-0.014
16,GAGTAGAA,-0.0575
17,ACAGCCAG,-0.107
18,ATTCATCA,0.181
19,ACTCTTCC,-0.28
20,AACACTGG,-0.2
21,CGATGGAA,0.079
22,ACGCAGCG,-0.162
23,CAGCCCGA,-0.277
24,AGGTAGTA,0.0867
25,CTTACGAA,0.216

row,Sequence,PBM E-score
1,ATGCGACG,0.199
2,AGTCATTC,0.198
3,AGGAACAC,-0.0807
4,AACCTACA,0.0827
5,CACCTAGA,-0.0355
6,TACTCGGA,0.131
7,GAGGGCAA,-0.0873
8,TACTGGCA,0.0332
9,ACAAGATC,-0.0051
10,AAGAGGAT,-0.0628
11,AAAATTGT,0.226
12,CTATGCAG,-0.0268
13,CGCGATGC,-0.0203
14,CAAATATA,0.00159
15,CAGGACGC,-0.00469
16,TGTGTCAA,-0.00278
17,CATATCGG,0.0102
18,AGGGTCCG,-0.249
19,ACAGGTGA,0.103
20,AGTTCCCA,0.0996
21,CTTCTCCA,-0.223
22,GCCCGCGA,-0.105
23,CAGGGGGC,-0.393
24,AGCGGTAG,-0.0407
25,CCGCGTTC,-0.031

row,Sequence,PBM E-score
1,GACGATGA,0.273
2,AAAATCGG,-0.00458
3,ACCTGTAT,-0.183
4,GTCCTGGA,-0.0142
5,ACTGGCCG,-0.142
6,AGGATGTA,0.0613
7,GACGTTTA,0.0137
8,CTGTCTAC,-0.0226
9,GAAAAATC,0.21
10,ACAATCTC,0.0746
11,AACTCACC,0.0628
12,CGTAGAAC,0.118
13,ATAGAAGC,0.106
14,TAAGCAAA,0.105
15,CAGTACCG,-0.149
16,GTTTGAGA,0.0182
17,GCAACGGA,0.0356
18,AGTTCCAA,-0.139
19,AATTGCAC,0.00627
20,GTAAGACA,0.102
21,TATTTAAA,0.214
22,AAACAAGG,-0.149
23,AATACCCA,0.00288
24,CGTACTGC,0.0469
25,GGGACCGA,-0.337

# A run of entries from further up, as a working copy:
row,Sequence,PBM E-score
13,ATAGAAGC,0.106
14,TAAGCAAA,0.105
15,CAGTACCG,-0.149
16,GTTTGAGA,0.0182
17,GCAACGGA,0.0356

# The list continues.

row,Sequence,PBM E-score
1,GGTATTAC,0.02
2,AGTCTAGG,-0.236
3,ATCCATTC,0.0787
4,AAAGCGAA,0.118
5,CATTGGGG,-0.199
6,CAGGGTTC,-0.0481
7,AAGTGATG,0.314
8,AGTGTTGA,0.0629
9,AGGGGCAA,-0.214
10,AATTCGAG,-0.0817
11,GCACCGAA,-0.0558
12,CACTCAGC,0.0359
13,ATCCTTGG,-0.289
14,AGAAAAAA,0.0788
15,CCATTTAA,0.0684
16,AAGACTGT,-0.267
17,GGATTCGA,-0.0742
18,AAGTTGAG,-0.0809
19,AACTCGTC,0.113
20,ACTTCTCG,0.111
21,CAGGTCGA,0.0616
22,ACGAAACC,0.196
23,ATACAACG,0.0467
24,ATCATTTC,0.312
25,AACACCAA,0.0367

row,Sequence,PBM E-score
1,AGTACAAG,0.0462
2,AAAGGCAC,-0.0274
3,ACAGCACG,0.0582
4,CGCGTCGA,0.121
5,ACCGAGCG,-0.183
6,ACGTACGT,0.335
7,ACTACTCA,0.213
8,CTAAAACC,-0.0918
9,CGGCCTAG,-0.141
10,GTGATGGA,0.0539
11,TCCGTGCA,0.312
12,ACATACGA,0.356
13,AGTACTGG,-0.0712
14,ACATCGTA,0.207
15,ATTAAAGA,0.174
16,TCGTTCCA,-0.0813
17,ATGTTTGC,-0.162
18,CGTTCCAC,-0.0766
19,ACACAGCG,-0.0765
20,AGGCCTGG,-0.236
21,TAGTCCAA,-0.00474
22,GAGTAGCA,-0.184
23,CAAGCCAA,-0.0777
24,CAACCTTA,-0.0413
25,ATAGACTC,-0.294

# 2 entries drawn at random from the list so far, as already listed:
row,Sequence,PBM E-score
8,CTAAAACC,-0.0918
6,ACGTACGT,0.335

# (next part)

row,Sequence,PBM E-score
1,CTTAATTA,0.0662
2,CAGACTAC,-0.185
3,CAGGAATA,-0.314
4,GGTCCGTA,0.112
5,CATTTTCA,0.118
6,ACACTCCC,-0.21
7,TAAGTACA,0.0945
8,CGGACCTA,-0.0975
9,GGAATAAA,-0.0763
10,GGGTCCAA,-0.198
11,ATCATAAA,0.303
12,CCAAGTTA,-0.0409
13,TTCCGAAA,0.104
14,ATTTAATC,0.207
15,GGATGGAA,-0.0799
16,AATGGCCT,0.0132
17,ACATCCGG,-0.21
18,GCTTGGGA,-0.0764
19,CGGACGCC,-0.0127
20,ATCAGCAG,0.0641
21,ACAGCGTC,-0.0987
22,CACTGGAG,-0.245
23,AGGAGCCT,-0.339
24,AATGAGTA,0.0631
25,ATAGCCAA,0.034

row,Sequence,PBM E-score
1,GCGGTGCA,-0.183
2,ATTAAATG,0.208
3,CTGTACCC,-0.26
4,GGTAAAGA,0.0544
5,GGTTCGCA,-0.0562
6,CTGGCTTA,-0.00286
7,AATTTTAA,0.158
8,CGTCTGAA,0.129
9,CTATTAGC,0.151
10,ACGATTTG,0.169
11,AAATGCCC,-0.275
12,ACCTTCCG,-0.171
13,AACTGGGT,-0.181
14,GGTTGTAA,-0.0279
15,TTCAAGAA,0.131
16,CCGAATGC,-0.0115
17,TCCTAGCA,-0.129
18,CGGGCCGA,-0.00016
19,CCTTCCCG,-0.152
